{
  "sequences": {"note": "Chains of the proteins cited; added tags and fusions are not shown. Residues count along the entry.", "UniProt P01116, 1-188 isoform P01116-2 G12D": "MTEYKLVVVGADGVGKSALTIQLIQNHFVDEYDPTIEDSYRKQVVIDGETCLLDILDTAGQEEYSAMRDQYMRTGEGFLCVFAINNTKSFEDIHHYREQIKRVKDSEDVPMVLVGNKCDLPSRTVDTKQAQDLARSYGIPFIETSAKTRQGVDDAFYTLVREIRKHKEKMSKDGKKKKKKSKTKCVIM", "UniProt P01116, 1-188 isoform P01116-2": "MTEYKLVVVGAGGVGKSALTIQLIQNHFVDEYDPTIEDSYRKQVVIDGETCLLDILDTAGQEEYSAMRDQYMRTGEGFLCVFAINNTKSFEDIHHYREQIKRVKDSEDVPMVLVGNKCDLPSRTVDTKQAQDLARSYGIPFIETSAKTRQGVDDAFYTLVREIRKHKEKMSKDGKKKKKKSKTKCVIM", "UniProt P01116, 1-188 isoform P01116-2 G12C": "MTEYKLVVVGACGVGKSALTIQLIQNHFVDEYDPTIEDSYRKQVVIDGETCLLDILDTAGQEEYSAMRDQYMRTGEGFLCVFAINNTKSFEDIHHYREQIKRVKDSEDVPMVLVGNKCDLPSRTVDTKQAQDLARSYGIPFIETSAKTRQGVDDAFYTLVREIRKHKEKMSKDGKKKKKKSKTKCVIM", "UniProt P01116, 1-188 isoform P01116-2 G12V": "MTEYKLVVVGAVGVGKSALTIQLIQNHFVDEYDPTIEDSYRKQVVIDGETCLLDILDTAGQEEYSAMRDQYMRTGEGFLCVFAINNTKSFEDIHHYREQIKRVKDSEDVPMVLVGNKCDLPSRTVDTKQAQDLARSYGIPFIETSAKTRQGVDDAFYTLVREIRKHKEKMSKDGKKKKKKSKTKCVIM"},
  "source": "patent US12723053B2",
  "about": "“KRas inhibitors” (ELI LILLY AND COMPANY, priority 2023, dated 2026)",
  "key": {"KRas G12D mutant": {"biological_target": "T1, KRas G12D mutant (Homo sapiens, UniProt P01116, G12D)", "T1 construct": "host or cells: PANC-1 human pancreatic ductal adenocarcinoma cells", "experiment": "PANC-1 Cellular Active RAS GTPase ELISA (KRas G12D Mutation)", "assay_type": "cell-based", "conditions": "PANC-1 cells, 2 hours incubation; read-out: relative IC50, inhibition of constitutive RAS GTPase activity (KRas G12D mutant)"}, "WT KRAS Amplification": {"biological_target": "T2, WT KRAS Amplification (Homo sapiens, UniProt P01116)", "T2 construct": "endogenous in cells; host or cells: MKN45 human gastric cancer cells", "experiment": "Cellular Phospho-ERK AlphaLISA assay, MKN45 cells", "assay_type": "cell-based", "conditions": "2 h incubation; cell line for KRAS WT not given; read-out: relative IC50, reduction of phosphorylated ERK-1/2, cells expressing KRAS WT"}, "KRAS G12D": {"biological_target": "T3, KRAS G12D (Homo sapiens, UniProt P01116, G12D)", "T3 construct": "endogenous in cells; host or cells: HPAC human pancreatic cancer cells", "experiment": "Cellular Phospho-ERK AlphaLISA assay, HPAC cells", "assay_type": "cell-based", "conditions": "2 h incubation; read-out: relative IC50, reduction of phosphorylated ERK-1/2, cells expressing KRAS G12D"}, "KRAS G12C": {"biological_target": "T4, KRAS G12C (Homo sapiens, UniProt P01116, G12C)", "T4 construct": "endogenous in cells; host or cells: NCI-1373 human lung cancer cells (so in the source); probably NCI-H1373", "experiment": "Cellular Phospho-ERK AlphaLISA assay, NCI-1373 cells", "assay_type": "cell-based", "conditions": "2 h incubation; read-out: relative IC50, reduction of phosphorylated ERK-1/2, cells expressing KRAS G12C"}, "KRAS G12V": {"biological_target": "T5, KRAS G12V (Homo sapiens, UniProt P01116, G12V)", "T5 construct": "endogenous in cells; host or cells: SW620 human colorectal cancer cells", "experiment": "Cellular Phospho-ERK AlphaLISA assay, SW620 cells", "assay_type": "cell-based", "conditions": "2 h incubation; read-out: relative IC50, reduction of phosphorylated ERK-1/2, cells expressing KRAS G12V"}, "NRAS": {"biological_target": "NRAS (Homo sapiens, UniProt P01111)", "experiment": "Cellular Phospho-ERK AlphaLISA assay, MEF-NRAS cells", "assay_type": "cell-based, mouse", "conditions": "RAS-less MEFs expressing NRAS only; read-out: relative IC50, phospho-ERK, MEF-NRAS"}, "HRAS": {"biological_target": "HRAS (Homo sapiens, UniProt P01112)", "experiment": "Cellular Phospho-ERK AlphaLISA assay, MEF-HRAS cells", "assay_type": "cell-based, mouse", "conditions": "RAS-less MEFs expressing HRAS only; read-out: relative IC50, phospho-ERK, MEF-HRAS"}},
  "note": "Some entries share one result that the patent states for a list of compounds.",
  "data": [
    {"smiles": "N#Cc1c(N)sc2ccc(F)c(-c3c4c(c5c(N6C7CCC6CN(CCCO)C7)nc(OCC6(CN7CCOCC7)CC6)nc5c3F)COC4)c12", "note": "(single isomer, unassigned; isomer 1) [Example 3, 2-Ammino-5-fluoro-4-(5-fluoro-1-(3-(3-hydroxypropyl)-3,8-diazabicyclo[3.2.1]octan-8-yl)-3-((1-(morpholinomethyl)cyclo-propyl)methoxy)-7,9-dihydrofuro[3,4-f]quinazolin-6-yl)benzo[b]thiophene-3-carbonitrile, Isomer 1]", "values": [
      {"measurement": "IC50", "setting": "KRas G12D mutant", "value": "< 100", "unit": "nM"},
      {"measurement": "IC50", "setting": "WT KRAS Amplification", "value": "< 500", "unit": "nM"},
      {"measurement": "IC50", "setting": "KRAS G12D", "value": "< 500", "unit": "nM"},
      {"measurement": "IC50", "setting": "KRAS G12C", "value": "< 500", "unit": "nM"}
    ]},
    {"smiles": "C[C@@H](O)CN1CC2CCC(C1)N2c1nc(OCC2(CN3CCC(F)CC3)CC2)nc2c(F)c(-c3ncc(F)c4sc(N)c(C#N)c34)c3c(c12)COC3", "note": "[Example 9, 2-Amino-7-fluoro-4-(5-fluoro-3-((1-((4-fluoropiperidin-1-yl)methyl)cyclopropyl)meth-oxy)-1-(3-((R)-2-hydroxypropyl)-3,8-diazabicyclo[3.2.1]octan-8-yl)-7,9-dihydrofuro[3,4-f]quinazolin-6-yl)thieno[3,2-c]pyridine-3-carbonitrile]", "values": [
      {"measurement": "IC50", "setting": "KRas G12D mutant", "value": "< 100", "unit": "nM"},
      {"measurement": "IC50", "setting": "WT KRAS Amplification", "value": "< 500", "unit": "nM"},
      {"measurement": "IC50", "setting": "KRAS G12V", "value": "< 500", "unit": "nM"},
      {"measurement": "IC50", "setting": "KRAS G12D", "value": "< 500", "unit": "nM"},
      {"measurement": "IC50", "setting": "KRAS G12C", "value": "< 500", "unit": "nM"},
      {"measurement": "IC50", "setting": "NRAS", "value": "> 2000", "unit": "nM"},
      {"measurement": "IC50", "setting": "HRAS", "value": "> 2000", "unit": "nM"}
    ]}
  ]
}
